Data published in paper PMC7799768.
Results are given in words; binding and its absence hold for the method and conditions named. Binding seen in cells or lysates may run through a third protein. Some binding calls cover weakened binding; strength is not graded here.

Chains of the proteins cited; added tags and fusions are not shown.
UniProt Q13158: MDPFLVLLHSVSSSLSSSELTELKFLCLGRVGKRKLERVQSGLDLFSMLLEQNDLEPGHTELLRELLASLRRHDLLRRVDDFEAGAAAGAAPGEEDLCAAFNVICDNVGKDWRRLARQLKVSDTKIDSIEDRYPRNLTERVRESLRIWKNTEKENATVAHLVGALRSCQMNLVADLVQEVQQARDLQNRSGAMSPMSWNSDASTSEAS
UniProt Q99497: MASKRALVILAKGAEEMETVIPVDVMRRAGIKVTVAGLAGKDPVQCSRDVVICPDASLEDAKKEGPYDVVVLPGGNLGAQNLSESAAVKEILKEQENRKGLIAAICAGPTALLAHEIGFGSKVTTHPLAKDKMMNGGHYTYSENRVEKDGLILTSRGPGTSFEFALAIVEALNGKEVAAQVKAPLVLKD

Target: FADD (Fas-Associated protein with death domain) (human (endogenous in platelets)) (UniProt Q13158)
Experiment: co-IP; antibody (4 ug) on magnetic Dynabeads Protein A/G incubated with platelet concentrate lysate (500 ug protein) in PBS for 2 h at RT; eluted and analysed by Western blot; IgG controls and input

## DJ-1 (Deglycase 1) (from UniProt Q99497 1-189)
  binding: binds
